Data as given in patent US20180141977A1 (NORWEGIAN UNIVERSITY OF SCIENCE AND TECHNOLOGY NTNU, published 2018).
Results are given in words; binding and its absence hold for the method and conditions named. Some entries that bind do so weakly or less than the wild type.

Sequences of proteins named here, by UniProt entry; tags and fusion partners are left off.
UniProt P0A988: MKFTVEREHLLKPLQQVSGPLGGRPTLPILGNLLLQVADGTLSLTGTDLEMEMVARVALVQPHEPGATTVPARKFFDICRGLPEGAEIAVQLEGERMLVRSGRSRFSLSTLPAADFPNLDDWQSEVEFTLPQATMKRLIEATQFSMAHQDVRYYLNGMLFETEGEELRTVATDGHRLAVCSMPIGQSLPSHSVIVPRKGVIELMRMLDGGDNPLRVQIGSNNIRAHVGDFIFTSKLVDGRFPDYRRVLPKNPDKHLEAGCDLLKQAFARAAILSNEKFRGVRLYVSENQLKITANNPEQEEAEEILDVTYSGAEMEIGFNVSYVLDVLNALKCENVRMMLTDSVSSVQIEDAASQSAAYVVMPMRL

Target: T1, β-clamp protein from E. coli (E. coli, UniProt P0A988 1-366, labeled with a fluorescent molecule (site not stated))
T1 construct: Fluorescently labelled for microscale thermophoresis; also called sliding clamp
Assay: microscale thermophoresis (MST)

| binding | Binder |
| --- | --- |
| binds | MDRWLVPWKKKRKIRRRRRRRRRRR [… (SEQ ID NO: 1303)] |
| binds | MDRWLSKWKKKRKIRRRRRRRRRRR [… (SEQ ID NO: 1302)] |
| binds | MDRFSLKWKKKRKIRRRRRRRRRRR [… (SEQ ID NO: 1304)] |

Continued, binder first:

| Binder | binding |
| --- | --- |
| MDRWSVKWKKKRKIRRRRRRRRRRR [… (SEQ ID NO: 1298)] | binds |
| MDRFLSKWKKKRKIRRRRRRRRRRR [… (SEQ ID NO: 1301)] | binds |
| MDRWLTKWKKKRKIRRRRRRRRRRR [… (SEQ ID NO: 1300)] | binds |
| MDRWAVKWKKKRKIRRRRRRRRRRR [… (SEQ ID NO: 1299)] | binds |
| MDRWLVKWKKKRKIRRRRRRRRRRR [ATX-101, … (SEQ ID NO: 1289)] | binds |
